This is an account of results in article PMC6611904.

Amino acid sequences for entries named in this document (tags omitted).
UniProt Q653D5, entry or part of it: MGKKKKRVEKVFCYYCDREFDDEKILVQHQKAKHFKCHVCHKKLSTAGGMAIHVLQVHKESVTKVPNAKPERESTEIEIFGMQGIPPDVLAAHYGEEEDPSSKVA

No signal at the amounts used counts as a negative. At least one verdict rests on a figure or table, not on a statement of the authors. Construct, isoform or probe ends are uncertain for at least one entry.

The target of this series is His-OsSUF4N (Oryza sativa) (UniProt Q653D5). Kind of series: EMSA. The note with it: EMSA: LightShift kit binding buffer, 5 ug protein, 0.02 uM probe, poly(dI-dC), 25 C 30 min, 5% PAGE; recombinant protein; residues 1-105; protein details: His (pET32a). (A gel shift assay detects complexes by their altered migration in electrophoresis.)
For “ACAGTTGGATAACGGTACGGAAATGGTATAAA (double strand) [Hd3a-e mu1]”, the binding result is given as “binds”.
In the case of “ACAGTTAACTAACGGTACAAGAATGGTATAAA (double strand) [Hd3a-e mu5]”, the binding result is listed as “no binding”.
Consider “ACAGTTAACTAACGGTACGGAAATGGTATAAA (double strand) [Hd3a-e (Hd3a-WT)]”, for which the binding result is “binds”.
The value for “CGGAAATCGGAAATCGGAAATCGGAAATCGGAAAT (double strand) [5x elements]” was “binds”.
Consider “ACAGTTAACTAACGGTACGGAAATTTGATAAA (double strand) [Hd3a-e mu7]”, for which the binding result is “binds”.
In the case of “AGTATGAGTTTTGGAATTAAGGGGATACCGAAC (double strand) [RFT1-mu]” it was “no binding”.
The value for “ACAGTTAACTAAGTTTACGGAAATGGTATAAA (double strand) [Hd3a-e mu3]” was “binds”; that for “ACAGTTAACTAACGGTACGGAGGGGGTATAAA (double strand) [Hd3a-e mu6]” was “no binding”; that for “ACAGTTAACGGGCGGTACGGAAATGGTATAAA (double strand) [Hd3a-e mu2]” was “binds”.
In the case of “ACAGTTAACTAACGGCCTGGAAATGGTATAAA (double strand) [Hd3a-e mu4]” it was “no binding”.
